The list shows a part of the results.
B1: il2ra_site1_1z92_sap_18_mot_23887b7af660956ed16a9c889f5d2f9d_0001_1_af2_000000287_0001_38_52_H_._32063319e58c7a3ce97db74413982e08_0001_1_0002_0000100018_0000001 … (protein)
chain: SSSSSEEEAAESNLKIARLALKRGNREKARRALRIVKSFAKETNDPELEEEAREIEEEVNSSSSS
B2: il2ra_site1_3nfp_sap_23_mot_ems_3hC_921_af2_000000143_0001_22_40_H_._HHH_b1_07723_0001_0000200012_0000001_0_0001_af2pred_0001_af2pred (protein)
chain: SEDEEEAEKLLKRRVPPEVVKLLKLLAEAAKEGNPQAKRRLEKSEKMARRLGDEDVVEAIELLRK
B3: il2ra_site1_2b5i_normal_mot_HHH_b2_07442_af2_000000069_0001_1_16_H_._HHH_b1_01573_af2_0001_0000100006_0000001_0_af2pred_dldesign_0_af2pred (protein)
chain: SSSSDEKLDEIDDLFDKALKLYREGKKEEATKLLEEALKLAKELNDHRAAELQRLLELLKSSSSS
B4: il2ra_site1_2b5i_normal_mot_HHH_b1_05608_000000027_0001_1_14_H_._HHH_b2_03941_af2_0001_0000200008_0000001_0_af2pred_dldesign_0_af2pred (protein)
chain: SSSSSSSSEEVQKLIEEAKKEKDRRKALETLEKAYKLASALGDDELIDEIEKLARELNSSSSSSS
B5: il2ra_site2_3nfp_normal_mot_HHH_b2_07840_000000026_0001_18_34_H_._3e5e4a15067cbc373d7c33478bca156f_0001_af2_0001_0000300024_0000001_0 (protein)
chain: DEERLIQELVQAGDHALFAIALDLAEARELGDEEVVEEIKELIEELEKGELPPEEVARLVDKLLK
B6: il2ra_site2_2erj_normal_mot_HHH_b1_03107_000000098_0001_39_52_H_._HHH_b2_07490_0001_0000700026_0000001_0 (protein)
chain: SSSSTEAYEEASRATLRALELFKRGNPEEAREVLEEALRLAEELNDEAAKRYLEFARRDLDSSSS
B7: il2ra_site1_3nfp_sap_10_mot_HHH_b1_01159_af2_000000107_0001_1_20_H_._HHH_b2_02384_0001_0000300011_0000001_1_0001 (protein)
chain: TSEKLAEIIARSIKKKAGVESVTVTMRNGKITVTVKGTDEEAEAALESAEWFAERSGIPVEVETE
B8: il2ra_site1_3nfp_normal_mot_HHH_b2_08102_af2_000000255_0001_38_50_H_._HHH_b1_06235_af2_0001_0000300024_0000001_0 (protein)
chain: SSSSSREVHRATKLAKEVWRLLKEGDEEEAEELLEELRKIAEELNDKIAERFIQHLLEKLRSSSS
B9: il2ra_site1_3nfp_normal_mot_HHH_b1_03753_af2_000000088_0001_41_54_H_._HHH_b2_03582_af2_0001_0000300018_0000001_1_af2pred_0001_af2pred (protein)
chain: SSSSDDQEIAELLREAREAAEEGDREKAKEILEEALRLAEESNNPHAERKLRHSLKVLELLSSSS
B10: il2ra_site1_2b5i_normal_mot_HHH_b2_04910_000000118_0001_1_19_H_._HHH_b1_03031_0001_0000300038_0000001_0_af2pred_dldesign_0_af2pred (protein)
chain: SSSSSVRELFLEADKLYQAGKYEEALELLRRARAEAEAAGQTSALKLIDSAIKNVEALLGSSSSS
B11: il2ra_site2_3nfp_normal_mot_HHH_b1_01086_000000225_0001_20_36_H_._HHH_b2_04636_af2_0001_0000500027_0000001_0_af2pred_0001_1_af2pred_swapped (protein)
chain: SSSSSKHEKFAARLLALALRVAVEAGDEEKLEKLVELAEEIARRLGDEELQEVVEEVKKLLSSSS
B12: il2ra_site2_3nfp_sap_22_mot_HHH_b1_03716_000000142_0001_40_56_H_._HHH_b2_03198_0001_0000600012_0000001_0_0001_af2pred_0001_af2pred (protein)
chain: GPSELILELLKEDEELAFLLFSLKNKVDETNDPRLEELLREALELIEEGNPEEAKEVLKEAAKIP
B13: il2ra_site1_1z92_normal_mot_HHH_b1_01831_000000045_0001_1_20_H_._3081a8c01baa413037e3e0772bd3c5f5_0001_0001_0000200028_0000001_0_af2pred_0001_af2pred (protein)
chain: SETEEELREAVEKNDPELLEEIFRLAERDAGNPELAEQFLKIALKKLGVPPEEIERILELVKELT
B14: il2ra_site2_2erj_normal_mot_HHH_b1_02757_000000121_0001_41_57_H_._HHH_b2_00384_0001_0000100002_0000001_0_af2pred_0001_1_af2pred_swapped (protein)
chain: SSSSSDEEELERRVEELLEEAKRIPDPREAMKLLQEASELAAKNNDEELLELVLRVFREASSSSS
B15: il2ra_site2_3nfp_sap_4_mot_HHH_b2_00168_000000180_0001_1_21_H_._HHH_b2_05578_af2_0001_0000500013_0000001_0_0001 (protein)
chain: SSSSDDVEEYLRAALALAREAIKQGDEELAEKILEMIRKAAEDAKDEEALEEAEELLKLVGSSSS
B16: il2ra_site1_1z92_sap_13_mot_0152819cca26c81f8eead0111e16a660_0001_000000247_0001_36_50_H_._HHH_b1_05979_0001_0000200015_0000001_0_0001 (protein)
chain: SSSSDRAARWALRLARAAVRLNNEEQLRFLFEDVELHLERTGDPEVEEILEEIEELIQLLSSSSS
B17: il2ra_site1_1z92_sap_20_mot_0152819cca26c81f8eead0111e16a660_0001_000000247_0001_36_50_H_._HHH_b2_05380_0002_0000200026_0000001_0_0001 (protein)
chain: SSSSSDIREWIEELAELLAERYKRANDPKTRRLIEWLLRQARLEGDPELEEIIEQLLRELSSSSS
B18: il2ra_site1_2b5i_sap_8_mot_HHH_b2_05260_af2_000000278_0001_1_17_H_._HHH_b1_07568_af2_0001_0000200023_0000001_0_0001_af2pred_dldesign_0_af2pred (protein)
chain: SSSSSSSEASRRARQLFLEAENVSEEEAKKLLEEALRVARAGGDARLAAAIERILESLSSSSSSS

Biological target: il2ra, P01589
Assay: yeast display titration

Apparent Kd, inactive:
B1 no binding seen
B2 no binding seen
B3 no binding seen
B4 no binding seen
B5 no binding seen
B6 no binding seen
B7 no binding seen
B8 no binding seen
B9 no binding seen
B10 no binding seen
B11 no binding seen
B12 no binding seen
B13 no binding seen
B14 no binding seen
B15 no binding seen
B16 no binding seen
B17 no binding seen
B18 no binding seen

Nothing new here: an excerpt of the list.
Apparent Kd, inactive:
B9 no binding seen
B10 no binding seen
